Compound in this assay: Cc1cc(ccc1-c1ccccc1)C(=O)N1CCCN(CC1)C(=O)CCl [compound 10]
Kind of assay: probe-labelled cysteine peptide fold change vs DMSO (competition) (log2 fold change); higher = less target engagement (more negative = stronger competition). Conditions: THP-1, incubation time: 4 h.

Chains of the proteins cited; added tags and fusions are not shown. Lines headed by an entry give the natural chain unless they say otherwise; changes in a name come on top.
UniProt Q15149: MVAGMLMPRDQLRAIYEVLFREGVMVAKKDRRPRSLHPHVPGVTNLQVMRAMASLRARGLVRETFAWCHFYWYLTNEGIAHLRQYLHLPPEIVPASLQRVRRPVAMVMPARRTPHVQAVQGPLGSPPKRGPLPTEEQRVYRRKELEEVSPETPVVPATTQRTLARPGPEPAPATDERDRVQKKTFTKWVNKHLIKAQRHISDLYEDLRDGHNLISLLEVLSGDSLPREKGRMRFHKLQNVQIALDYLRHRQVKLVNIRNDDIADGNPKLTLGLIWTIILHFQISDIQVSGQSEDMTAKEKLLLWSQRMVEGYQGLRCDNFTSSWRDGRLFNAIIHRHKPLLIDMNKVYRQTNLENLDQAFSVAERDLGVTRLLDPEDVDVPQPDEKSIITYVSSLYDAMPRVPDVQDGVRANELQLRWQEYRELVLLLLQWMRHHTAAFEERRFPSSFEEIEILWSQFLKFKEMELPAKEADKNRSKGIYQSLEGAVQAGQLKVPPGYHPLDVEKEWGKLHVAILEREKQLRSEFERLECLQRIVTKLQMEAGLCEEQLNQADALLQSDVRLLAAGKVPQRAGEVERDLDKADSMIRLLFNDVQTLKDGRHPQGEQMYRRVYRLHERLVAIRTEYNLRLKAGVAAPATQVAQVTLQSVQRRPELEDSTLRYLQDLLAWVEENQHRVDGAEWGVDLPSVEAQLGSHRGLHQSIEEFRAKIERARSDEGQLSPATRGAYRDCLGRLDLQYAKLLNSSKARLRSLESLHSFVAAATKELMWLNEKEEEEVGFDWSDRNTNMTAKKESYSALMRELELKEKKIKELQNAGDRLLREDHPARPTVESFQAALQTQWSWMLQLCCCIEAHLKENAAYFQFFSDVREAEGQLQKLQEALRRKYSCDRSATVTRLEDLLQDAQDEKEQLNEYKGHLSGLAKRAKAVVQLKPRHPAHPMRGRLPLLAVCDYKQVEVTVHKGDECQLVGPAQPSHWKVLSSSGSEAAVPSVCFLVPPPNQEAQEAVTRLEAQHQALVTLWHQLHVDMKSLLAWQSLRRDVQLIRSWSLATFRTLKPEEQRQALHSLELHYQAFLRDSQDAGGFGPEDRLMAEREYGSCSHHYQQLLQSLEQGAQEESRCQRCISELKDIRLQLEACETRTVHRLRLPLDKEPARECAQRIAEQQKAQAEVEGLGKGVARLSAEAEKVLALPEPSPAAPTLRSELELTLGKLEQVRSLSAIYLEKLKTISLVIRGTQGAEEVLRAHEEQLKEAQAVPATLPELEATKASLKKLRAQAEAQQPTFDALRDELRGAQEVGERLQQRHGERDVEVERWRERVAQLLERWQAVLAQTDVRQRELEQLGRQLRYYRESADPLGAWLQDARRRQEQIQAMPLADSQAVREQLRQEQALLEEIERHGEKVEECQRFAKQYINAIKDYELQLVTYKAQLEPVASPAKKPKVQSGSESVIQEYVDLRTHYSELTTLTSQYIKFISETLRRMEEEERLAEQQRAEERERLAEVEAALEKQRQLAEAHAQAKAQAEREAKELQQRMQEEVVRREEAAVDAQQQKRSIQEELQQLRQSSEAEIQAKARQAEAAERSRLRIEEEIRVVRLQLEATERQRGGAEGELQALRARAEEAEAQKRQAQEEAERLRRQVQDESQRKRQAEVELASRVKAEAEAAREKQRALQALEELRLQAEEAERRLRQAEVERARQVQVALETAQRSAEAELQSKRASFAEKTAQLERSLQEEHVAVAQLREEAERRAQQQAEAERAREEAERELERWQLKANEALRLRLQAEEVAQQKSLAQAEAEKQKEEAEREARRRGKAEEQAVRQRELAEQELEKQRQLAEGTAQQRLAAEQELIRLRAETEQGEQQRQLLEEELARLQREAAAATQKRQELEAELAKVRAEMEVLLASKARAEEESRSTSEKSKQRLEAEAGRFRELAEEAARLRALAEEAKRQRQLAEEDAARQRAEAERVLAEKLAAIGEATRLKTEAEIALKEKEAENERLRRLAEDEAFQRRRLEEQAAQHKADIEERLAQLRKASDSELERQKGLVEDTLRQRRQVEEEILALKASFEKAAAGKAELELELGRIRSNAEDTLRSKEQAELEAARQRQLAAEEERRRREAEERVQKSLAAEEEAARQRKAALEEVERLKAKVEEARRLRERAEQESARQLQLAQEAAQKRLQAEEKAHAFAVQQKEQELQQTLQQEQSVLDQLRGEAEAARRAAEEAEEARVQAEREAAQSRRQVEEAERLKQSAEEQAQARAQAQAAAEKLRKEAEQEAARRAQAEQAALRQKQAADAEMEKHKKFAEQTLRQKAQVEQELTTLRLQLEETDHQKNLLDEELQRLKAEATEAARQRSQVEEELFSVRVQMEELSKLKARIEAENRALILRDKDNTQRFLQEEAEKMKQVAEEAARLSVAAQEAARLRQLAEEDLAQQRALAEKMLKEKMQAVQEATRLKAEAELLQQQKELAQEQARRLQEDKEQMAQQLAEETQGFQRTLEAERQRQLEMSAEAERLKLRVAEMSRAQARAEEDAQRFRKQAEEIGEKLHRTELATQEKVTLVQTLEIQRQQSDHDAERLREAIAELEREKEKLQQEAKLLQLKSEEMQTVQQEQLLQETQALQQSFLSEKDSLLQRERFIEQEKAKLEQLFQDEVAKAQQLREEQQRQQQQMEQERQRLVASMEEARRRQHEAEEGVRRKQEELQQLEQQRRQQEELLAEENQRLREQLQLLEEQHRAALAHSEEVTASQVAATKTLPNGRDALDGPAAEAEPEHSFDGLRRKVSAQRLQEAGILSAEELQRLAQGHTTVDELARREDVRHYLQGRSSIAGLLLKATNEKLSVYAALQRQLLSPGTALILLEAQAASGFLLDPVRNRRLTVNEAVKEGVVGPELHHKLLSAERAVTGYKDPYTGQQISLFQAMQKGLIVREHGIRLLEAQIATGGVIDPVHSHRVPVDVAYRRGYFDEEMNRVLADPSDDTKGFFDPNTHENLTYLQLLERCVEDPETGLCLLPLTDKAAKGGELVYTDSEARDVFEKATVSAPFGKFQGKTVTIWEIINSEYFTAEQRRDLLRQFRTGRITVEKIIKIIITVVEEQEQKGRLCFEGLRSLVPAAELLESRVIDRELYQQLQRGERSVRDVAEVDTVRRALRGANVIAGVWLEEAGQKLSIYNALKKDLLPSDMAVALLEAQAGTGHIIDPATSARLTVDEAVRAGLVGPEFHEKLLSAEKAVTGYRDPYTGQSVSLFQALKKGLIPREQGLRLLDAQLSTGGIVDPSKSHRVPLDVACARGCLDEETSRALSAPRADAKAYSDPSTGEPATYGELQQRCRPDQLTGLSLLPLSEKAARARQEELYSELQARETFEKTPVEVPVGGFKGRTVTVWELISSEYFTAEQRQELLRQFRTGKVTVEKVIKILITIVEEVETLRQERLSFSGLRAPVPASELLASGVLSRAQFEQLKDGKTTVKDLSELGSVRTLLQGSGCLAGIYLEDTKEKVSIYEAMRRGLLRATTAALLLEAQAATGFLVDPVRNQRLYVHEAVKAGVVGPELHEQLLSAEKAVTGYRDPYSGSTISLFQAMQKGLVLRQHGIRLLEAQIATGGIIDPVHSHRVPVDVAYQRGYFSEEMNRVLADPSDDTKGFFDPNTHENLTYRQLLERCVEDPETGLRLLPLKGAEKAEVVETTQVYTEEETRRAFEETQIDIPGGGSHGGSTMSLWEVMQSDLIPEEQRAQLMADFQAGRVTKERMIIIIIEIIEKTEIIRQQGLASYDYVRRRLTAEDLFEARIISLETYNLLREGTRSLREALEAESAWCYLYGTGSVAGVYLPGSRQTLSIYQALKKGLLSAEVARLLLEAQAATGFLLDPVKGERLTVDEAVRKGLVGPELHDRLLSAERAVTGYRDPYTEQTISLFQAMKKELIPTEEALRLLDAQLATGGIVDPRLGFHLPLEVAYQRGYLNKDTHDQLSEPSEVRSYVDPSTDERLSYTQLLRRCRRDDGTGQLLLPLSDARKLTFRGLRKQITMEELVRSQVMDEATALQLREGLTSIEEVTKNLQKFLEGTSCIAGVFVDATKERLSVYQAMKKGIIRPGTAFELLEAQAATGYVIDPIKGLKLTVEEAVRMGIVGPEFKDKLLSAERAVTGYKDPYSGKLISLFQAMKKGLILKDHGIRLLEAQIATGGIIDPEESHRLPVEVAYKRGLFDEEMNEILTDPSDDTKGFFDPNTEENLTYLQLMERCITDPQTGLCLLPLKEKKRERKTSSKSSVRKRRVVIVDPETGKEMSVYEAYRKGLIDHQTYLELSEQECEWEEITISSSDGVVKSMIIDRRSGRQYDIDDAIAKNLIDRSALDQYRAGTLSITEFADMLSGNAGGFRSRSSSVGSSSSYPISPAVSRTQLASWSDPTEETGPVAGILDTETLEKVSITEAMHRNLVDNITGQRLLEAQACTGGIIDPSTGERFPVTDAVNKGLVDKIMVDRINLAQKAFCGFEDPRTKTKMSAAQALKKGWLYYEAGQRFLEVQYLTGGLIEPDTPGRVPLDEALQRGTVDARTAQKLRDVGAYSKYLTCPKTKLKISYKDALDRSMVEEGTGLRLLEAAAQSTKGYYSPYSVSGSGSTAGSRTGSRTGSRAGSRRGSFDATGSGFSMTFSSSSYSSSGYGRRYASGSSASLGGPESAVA
UniProt Q9Y263: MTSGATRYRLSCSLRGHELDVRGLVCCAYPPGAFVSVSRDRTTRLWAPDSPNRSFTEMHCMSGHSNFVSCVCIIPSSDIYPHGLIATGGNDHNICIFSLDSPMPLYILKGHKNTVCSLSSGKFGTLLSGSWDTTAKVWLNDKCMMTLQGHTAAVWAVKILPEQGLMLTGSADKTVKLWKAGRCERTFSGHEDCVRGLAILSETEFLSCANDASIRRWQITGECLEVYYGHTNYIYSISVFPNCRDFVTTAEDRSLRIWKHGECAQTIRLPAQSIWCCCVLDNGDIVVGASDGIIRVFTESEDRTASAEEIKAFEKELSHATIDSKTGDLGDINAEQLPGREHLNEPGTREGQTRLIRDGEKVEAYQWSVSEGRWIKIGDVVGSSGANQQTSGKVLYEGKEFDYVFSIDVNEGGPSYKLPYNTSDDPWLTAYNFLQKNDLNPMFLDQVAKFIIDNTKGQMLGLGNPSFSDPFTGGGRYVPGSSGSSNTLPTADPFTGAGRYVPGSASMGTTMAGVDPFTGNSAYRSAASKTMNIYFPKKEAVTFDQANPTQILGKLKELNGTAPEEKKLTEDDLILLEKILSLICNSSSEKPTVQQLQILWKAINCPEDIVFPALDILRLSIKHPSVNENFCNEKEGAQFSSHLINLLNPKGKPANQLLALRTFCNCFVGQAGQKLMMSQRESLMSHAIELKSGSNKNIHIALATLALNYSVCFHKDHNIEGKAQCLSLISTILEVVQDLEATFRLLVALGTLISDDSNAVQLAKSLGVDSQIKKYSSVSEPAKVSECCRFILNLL
UniProt Q9HB19: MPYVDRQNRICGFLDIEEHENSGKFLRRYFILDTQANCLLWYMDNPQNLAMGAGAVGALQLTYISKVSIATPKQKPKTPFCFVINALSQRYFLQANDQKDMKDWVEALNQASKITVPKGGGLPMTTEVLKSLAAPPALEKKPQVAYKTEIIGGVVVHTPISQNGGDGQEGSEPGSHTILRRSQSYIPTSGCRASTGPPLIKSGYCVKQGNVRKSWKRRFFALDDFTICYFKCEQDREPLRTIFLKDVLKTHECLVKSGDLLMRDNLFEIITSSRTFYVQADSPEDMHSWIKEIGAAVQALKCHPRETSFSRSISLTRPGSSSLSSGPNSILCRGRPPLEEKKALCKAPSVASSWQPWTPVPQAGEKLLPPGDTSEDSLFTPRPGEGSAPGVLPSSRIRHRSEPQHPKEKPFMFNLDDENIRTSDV
UniProt O43660: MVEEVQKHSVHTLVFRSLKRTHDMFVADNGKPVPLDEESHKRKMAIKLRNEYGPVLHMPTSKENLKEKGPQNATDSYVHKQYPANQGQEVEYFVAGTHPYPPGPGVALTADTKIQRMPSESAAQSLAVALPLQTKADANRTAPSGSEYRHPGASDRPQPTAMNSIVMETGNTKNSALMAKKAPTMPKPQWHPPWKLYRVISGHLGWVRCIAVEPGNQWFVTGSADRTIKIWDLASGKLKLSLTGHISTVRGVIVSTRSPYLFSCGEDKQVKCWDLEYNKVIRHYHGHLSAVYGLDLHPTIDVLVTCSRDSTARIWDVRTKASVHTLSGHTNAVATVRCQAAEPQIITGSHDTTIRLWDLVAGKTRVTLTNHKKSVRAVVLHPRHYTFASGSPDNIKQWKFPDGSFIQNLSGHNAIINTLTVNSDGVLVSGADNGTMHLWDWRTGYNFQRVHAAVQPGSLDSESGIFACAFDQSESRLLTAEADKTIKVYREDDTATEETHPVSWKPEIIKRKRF

Some of the results follow.
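Note: competitive profiling in live THP-1 cells: cysteine peptides tagged with an iodoacetamide desthiobiotin (IA-DTB) probe, intensity after compound treatment relative to DMSO-treated cells.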

Regarding “PLCB2_Q00722_1001_QGEEQYECVLK (UniProt Q00722)”, the “probe-labelled cysteine peptide fold change” value by setting is: (10 µM) 0.0275; (50 µM) -0.275.
The matching figures for “PLEKHB2_Q96CS7_75+81_DCMLQIVCR (UniProt Q96CS7)”: 0.107 and 0.181.
In the same order, the values of “PLCG1_P19174_1088_GLEPCAISIEVLGAR (UniProt P19174)” are 0.115 and 0.2.
For the target “PLCG2_P16885_355_CIELDCWDGPDGKPVIYHGWTR (UniProt P16885)”, the “probe-labelled cysteine peptide fold change” value by setting is: (10 µM) -0.00939; (50 µM) -0.0755.
In the same order, the values of “PLPP6_Q8IY26_55_ATAVDPTCAR (UniProt Q8IY26)” are -0.366 and -0.581.
The matching figures for “POC1A_Q8NBT0_5_AAPCAEDPSLER (UniProt Q8NBT0)”: 0.0986 and -0.0566.
On to “PLEKHF2_Q9H8W4_219_ICDFCYDLLSAGDMATCQPAR (UniProt Q9H8W4)”, for which the “probe-labelled cysteine peptide fold change” value is, setting by setting: (10 µM) -0.498; (50 µM) -0.228.
In the same order, the values of “PIK3R1_P27986_498_IFEEQCQTQER (UniProt P27986)” are -0.0182 and 0.0754.
For the target “PLEC_Q15149_3110_LCFEGLR (UniProt Q15149)”, the “probe-labelled cysteine peptide fold change” value is -0.0802 (10 µM) and 0.172 (50 µM).
The matching figures for “PIKFYVE_Q9Y2I7_1498_QSLCEVLQAWNNR (UniProt Q9Y2I7)”: -0.165 and -0.0127.
Regarding “PML_P29590_189_KTNNIFCSNPNHR (UniProt P29590)”, the “probe-labelled cysteine peptide fold change” value reads like this: (10 µM) 0.0485; (50 µM) -0.385.
In the same order, the values of “PLCG1_P19174_247_AGERPELCR (UniProt P19174)” are -0.173 and -0.0224.
Regarding “PNO1_Q9NRX1_64_RPVFPPLCGDGLLSGKEETR (UniProt Q9NRX1)”, the “probe-labelled cysteine peptide fold change” value is -0.393 (10 µM) and -0.796 (50 µM).
On to “PLK1_P53350_372_ETGEVVDCHLSDMLQQLHSVNASKPSER (UniProt P53350)”, for which the “probe-labelled cysteine peptide fold change” value runs as follows: (10 µM) -0.0492; (50 µM) -0.49.
For the target “PLAA_Q9Y263_263_HGECAQTIR (UniProt Q9Y263)”, the “probe-labelled cysteine peptide fold change” value (10 µM) is 0.0749 and the “probe-labelled cysteine peptide fold change” value (50 µM) was -0.21.
For PMS1_P54277_915_ECVHGR (UniProt P54277), the “probe-labelled cysteine peptide fold change” value (10 µM) is 0.125 and the “probe-labelled cysteine peptide fold change” value (50 µM) is 0.329.
In the same order, the values of “PLEKHA2_Q9HB19_191_SQSYIPTSGCR (UniProt Q9HB19)” are -0.199 and -1.02.
As for “PLXDC2_Q6UX71_529_EGFIVSEQC (UniProt Q6UX71)”, the “probe-labelled cysteine peptide fold change” value is -0.169 (10 µM) and 0.0727 (50 µM).
Consider “PLXNB2_O15031_937_VTLNGVPCK (UniProt O15031)”, for which the “probe-labelled cysteine peptide fold change” value runs as follows: (10 µM) -0.151; (50 µM) 0.176.
The matching figures for “PNPO_Q9NVS9_156_LPEEEAECYFHSRPK (UniProt Q9NVS9)”: -0.184 and -0.375.
In the same order, the values of “PNKD_Q8N490_170_EGVTLVAILCTHK (UniProt Q8N490)” are 0.102 and 0.121.
The matching figures for “PMS1_P54277_102_GEALGSICCIAEVLITTR (UniProt P54277)”: 0.151 and -0.235.
With “PLS3_P13797_33_VDLNSNGFICDYELHELFK (UniProt P13797)”, the “probe-labelled cysteine peptide fold change” value reads like this: (10 µM) 0.358; (50 µM) 0.113.
As for “PLSCR1_O15162_254_SLDEQCVVGK (UniProt O15162)”, the “probe-labelled cysteine peptide fold change” value runs as follows: (10 µM) 0.0443; (50 µM) 0.0858.
Turning to “PLXNB2_O15031_486_DSQDPYCGWCVVEGR (UniProt O15031)”, the “probe-labelled cysteine peptide fold change” value by setting is: (10 µM) -0.094; (50 µM) 0.024.
In the case of “PLRG1_O43660_272_CWDLEYNK (UniProt O43660)”, the “probe-labelled cysteine peptide fold change” value by setting is: (10 µM) -0.169; (50 µM) 0.269.
As for “PLRG1_O43660_468_VHAAVQPGSLDSESGIFACAFDQSESR (UniProt O43660)”, the “probe-labelled cysteine peptide fold change” value runs as follows: (10 µM) 0.205; (50 µM) 0.49.
The matching figures for “PLCB3_Q01970_358_QALLWGCR (UniProt Q01970)”: -0.0263 and -0.23.
The matching figures for “PLCG2_P16885_791_SDELSFCR (UniProt P16885)”: -0.0321 and -0.0713.
For “PLAA_Q9Y263_605_AINCPEDIVFPALDILR (UniProt Q9Y263)”, the “probe-labelled cysteine peptide fold change” value is -0.179 (10 µM) and 0.232 (50 µM).
Regarding “PLS3_P13797_167_AVGDGIVLCK (UniProt P13797)”, the “probe-labelled cysteine peptide fold change” value is, setting by setting: (10 µM) 0.0926; (50 µM) -0.0651.
The matching figures for “PLPPR3_Q6T4P5_54_VGFQCYDR (UniProt Q6T4P5)”: 0.0225 and 0.0956.
The matching figures for “PIK3R4_Q99570_1011_VSDEHSLFATCSNDGTVK (UniProt Q99570)”: 0.159 and 0.183.
In the same order, the values of “PLCG2_P16885_849_QIIEDNPLGSLCR (UniProt P16885)” are 0.158 and 0.00581.
Regarding “PKM_P14618_49_NTGIICTIGPASR (UniProt P14618)”, the “probe-labelled cysteine peptide fold change” value (10 µM) worked out at 0.0959 and the “probe-labelled cysteine peptide fold change” value (50 µM) is -0.189.
In the same order, the values of “PIKFYVE_Q9Y2I7_421_WLDCVSHHDQLFR (UniProt Q9Y2I7)” are 0.115 and -0.111.
In the case of PNP_P00491_78_ACVMMQGR (UniProt P00491), the “probe-labelled cysteine peptide fold change” value is -0.061 (10 µM) and 0.171 (50 µM).
In the same order, the values of “PLCG2_P16885_937_NQSIAIELSDLVVYCKPTSK (UniProt P16885)” are 0.107 and 0.0145.
In the case of “PLEC_Q15149_3493_TLLQGSGCLAGIYLEDTK (UniProt Q15149)”, the “probe-labelled cysteine peptide fold change” value worked out at 0.242 (10 µM) and 0.398 (50 µM).
The matching figures for “PKN1_Q16512_469_HEVQLDMEPQGCLVAEVTFR (UniProt Q16512)”: -0.0224 and 0.309.
The matching figures for “PLAUR_Q03405_144_SPEEQCLDVVTHWIQEGEEGRPK (UniProt Q03405)”: 0.0417 and -0.0586.
As to “PLEKHA2_Q9HB19_228_FFALDDFTICYFK (UniProt Q9HB19)”, the “probe-labelled cysteine peptide fold change” value (10 µM) is 0.385 and the “probe-labelled cysteine peptide fold change” value (50 µM) is 0.142.
For the target “PNKP_Q96T60_447_CFLFTATLEQAR (UniProt Q96T60)”, the “probe-labelled cysteine peptide fold change” value is, setting by setting: (10 µM) -0.0588; (50 µM) -0.12.

Source of the values: the supplement of paper PMC12067093, “Discovery and optimisation of a covalent ligand for TRIM25 and its application to targeted protein ubiquitination” (Chemical Science, 2025).
